# Percent effect of library compounds

By UniProt entry, the sequences of proteins in these tests, tags left out. Residues count along the entry.
UniProt P9WFT3, whole entry: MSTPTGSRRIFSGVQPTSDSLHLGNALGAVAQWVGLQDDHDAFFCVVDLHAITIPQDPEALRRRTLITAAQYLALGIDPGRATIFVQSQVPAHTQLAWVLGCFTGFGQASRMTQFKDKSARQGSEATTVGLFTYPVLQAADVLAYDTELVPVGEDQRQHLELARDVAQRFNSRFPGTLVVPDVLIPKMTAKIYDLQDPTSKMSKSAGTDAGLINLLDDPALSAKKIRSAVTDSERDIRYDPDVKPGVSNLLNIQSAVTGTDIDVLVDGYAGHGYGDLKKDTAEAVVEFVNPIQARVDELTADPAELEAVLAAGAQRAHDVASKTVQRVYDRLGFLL
UniProt P9WPC5, whole entry: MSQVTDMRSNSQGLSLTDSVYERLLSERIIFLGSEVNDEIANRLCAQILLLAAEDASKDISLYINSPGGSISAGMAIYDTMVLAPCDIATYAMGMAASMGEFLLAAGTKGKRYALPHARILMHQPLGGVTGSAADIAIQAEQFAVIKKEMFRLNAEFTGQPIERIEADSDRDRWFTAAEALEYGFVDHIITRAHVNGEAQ
UniProt P9WPC3, whole entry partner: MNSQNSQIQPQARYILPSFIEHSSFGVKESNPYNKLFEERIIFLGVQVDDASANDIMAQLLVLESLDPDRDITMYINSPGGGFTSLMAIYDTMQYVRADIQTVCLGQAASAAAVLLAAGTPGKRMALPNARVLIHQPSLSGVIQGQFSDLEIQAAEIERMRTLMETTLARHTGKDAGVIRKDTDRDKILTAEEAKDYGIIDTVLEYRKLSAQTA
UniProt I6X8D2, whole entry: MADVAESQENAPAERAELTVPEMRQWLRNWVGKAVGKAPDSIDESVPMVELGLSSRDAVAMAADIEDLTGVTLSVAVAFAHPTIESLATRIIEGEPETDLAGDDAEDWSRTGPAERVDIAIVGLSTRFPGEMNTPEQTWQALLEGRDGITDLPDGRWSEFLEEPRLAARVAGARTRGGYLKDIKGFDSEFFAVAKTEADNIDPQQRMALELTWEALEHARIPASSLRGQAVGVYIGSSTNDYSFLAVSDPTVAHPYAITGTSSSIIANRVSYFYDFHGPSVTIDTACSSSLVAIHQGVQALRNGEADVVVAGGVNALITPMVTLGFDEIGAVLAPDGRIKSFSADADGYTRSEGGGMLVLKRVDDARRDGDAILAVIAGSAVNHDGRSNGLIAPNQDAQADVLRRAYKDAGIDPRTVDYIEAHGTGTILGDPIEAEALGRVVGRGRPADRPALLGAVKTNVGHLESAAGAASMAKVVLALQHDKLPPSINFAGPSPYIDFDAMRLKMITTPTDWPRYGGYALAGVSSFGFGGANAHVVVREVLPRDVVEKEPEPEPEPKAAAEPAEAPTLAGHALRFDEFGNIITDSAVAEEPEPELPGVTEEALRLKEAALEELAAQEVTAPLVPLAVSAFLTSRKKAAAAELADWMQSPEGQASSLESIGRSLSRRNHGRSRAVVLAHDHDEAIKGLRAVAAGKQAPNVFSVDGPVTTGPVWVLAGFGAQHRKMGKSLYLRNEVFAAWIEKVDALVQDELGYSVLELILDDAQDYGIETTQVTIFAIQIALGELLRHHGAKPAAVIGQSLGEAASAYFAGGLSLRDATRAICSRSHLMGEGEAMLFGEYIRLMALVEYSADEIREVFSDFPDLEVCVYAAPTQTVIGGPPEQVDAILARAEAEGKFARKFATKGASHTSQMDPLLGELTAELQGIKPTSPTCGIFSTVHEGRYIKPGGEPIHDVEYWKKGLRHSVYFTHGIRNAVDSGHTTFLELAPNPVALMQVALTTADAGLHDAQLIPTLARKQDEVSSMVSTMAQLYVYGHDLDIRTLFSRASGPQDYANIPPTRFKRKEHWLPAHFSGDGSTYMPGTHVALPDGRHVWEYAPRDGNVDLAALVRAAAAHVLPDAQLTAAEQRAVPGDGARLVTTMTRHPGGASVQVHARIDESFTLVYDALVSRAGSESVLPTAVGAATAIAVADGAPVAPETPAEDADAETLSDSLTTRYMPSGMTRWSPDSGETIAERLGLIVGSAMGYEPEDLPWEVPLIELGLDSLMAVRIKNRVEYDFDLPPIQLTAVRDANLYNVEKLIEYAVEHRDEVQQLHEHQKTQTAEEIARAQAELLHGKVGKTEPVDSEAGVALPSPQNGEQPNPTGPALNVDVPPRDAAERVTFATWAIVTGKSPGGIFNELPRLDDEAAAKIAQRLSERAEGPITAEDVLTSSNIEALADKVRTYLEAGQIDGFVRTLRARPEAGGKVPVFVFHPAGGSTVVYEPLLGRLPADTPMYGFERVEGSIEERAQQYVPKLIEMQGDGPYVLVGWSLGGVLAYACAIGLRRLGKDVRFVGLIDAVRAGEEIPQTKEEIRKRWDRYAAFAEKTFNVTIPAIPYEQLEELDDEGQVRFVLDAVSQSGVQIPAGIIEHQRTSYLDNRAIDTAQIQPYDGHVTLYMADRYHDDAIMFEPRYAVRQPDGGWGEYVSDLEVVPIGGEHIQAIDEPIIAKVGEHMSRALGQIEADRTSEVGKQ
UniProt Q8IDJ8, 1-583: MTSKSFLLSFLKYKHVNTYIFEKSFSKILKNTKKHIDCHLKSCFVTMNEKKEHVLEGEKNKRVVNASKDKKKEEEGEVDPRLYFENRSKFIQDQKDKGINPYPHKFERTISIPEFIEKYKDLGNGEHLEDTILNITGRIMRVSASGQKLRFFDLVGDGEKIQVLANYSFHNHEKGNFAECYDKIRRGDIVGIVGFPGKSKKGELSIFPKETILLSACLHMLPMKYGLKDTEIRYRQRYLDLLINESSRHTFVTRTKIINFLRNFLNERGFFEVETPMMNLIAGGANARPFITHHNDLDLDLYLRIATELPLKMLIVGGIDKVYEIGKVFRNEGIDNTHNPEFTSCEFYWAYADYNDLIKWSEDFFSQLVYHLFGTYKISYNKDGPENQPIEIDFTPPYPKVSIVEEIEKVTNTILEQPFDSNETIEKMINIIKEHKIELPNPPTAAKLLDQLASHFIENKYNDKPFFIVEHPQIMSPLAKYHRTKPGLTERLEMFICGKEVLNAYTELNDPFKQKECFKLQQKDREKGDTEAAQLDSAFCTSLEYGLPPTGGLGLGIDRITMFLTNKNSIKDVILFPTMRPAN

A: 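Tryptophan-tRNA ligase, Mycobacterium tuberculosis (UniProt P9WFT3). Enzyme assay of tryptophanyl-tRNA synthetase; the read-out is not stated. Tested at 10 µM. Higher most likely means stronger inhibition; the record gives no direction and few retests gave an IC50. Size under these conditions: about 65,000 compounds, about 64 of them at 50% or above in at least one test.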
B: 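Protease assay of ClpP1P2, read by the AMC dye that it sets free. Target: ClpP1P2, Mycobacterium tuberculosis (UniProt P9WPC5 and UniProt P9WPC3). Tested at 50 µM. Direction is inferred from only a few compounds that gave an IC50; most scored high, so higher reads as stronger inhibition. Most other retested compounds had strongly negative values. Size under these conditions: about 69,000 compounds, about 10 of them at 50% or above in at least one test.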
C: 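Polyketide synthase Pks13, Mycobacterium tuberculosis (UniProt I6X8D2). Enzyme assay of the thioesterase domain of polyketide synthase 13; the read-out is not stated. Concentration: 30 µM. Higher reads as stronger inhibition (inferred from which compounds were picked for retests). About 67,000 compounds were tested under these conditions; 0.46% (about 300) showed 50% or more at least once.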
D: 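Lysine-tRNA ligase, Plasmodium falciparum 3D7 (UniProt Q8IDJ8). Enzyme assay of the cytosolic lysyl-tRNA synthetase in 384-well plates, read by luminescence. Compounds at 30 µM. Direction is inferred from only a few compounds that gave an IC50; most scored high, so higher reads as stronger inhibition. About 69,000 compounds were tested under these conditions; 0.071% (about 49) showed 50% or more at least once.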

Each number is a percent effect as filed. The controls that fix the scale are not given in the record; negative values are as filed. Compounds were drawn at random from those tested, without regard to their results.

COCC(=O)N1CCCC1c1nccnc1Nc1ncccn1 (stereo not shown) read B: -1.907%; C: 25.33%; D: 3.826%. For COc1ccc(CN(C(=O)C2CCCS2)c2ccncc2)cc1 (stereo not shown) the result was A: -1.002%; B: -6.441%; C: -14.64%; D: -0.3741%. With CSc1ccc(CNCCS(=O)(=O)N2CCOCC2)cc1 the screen gave A: 0.7048%; B: -8.004%; C: -19.46%; D: 2.433%. Result for N#CCCN(CC1CCOC1)S(=O)(=O)c1cccc(Cl)c1 (stereo not shown) was A: -1.262%; B: -5.427%; C: -27.92%; D: 1.58%. O=C(CC1CC1)N1CCC2(CC1)CN(c1cccnc1)C(=O)CO2 read B: -2.738%; D: 1.462%.

Result for O=C(CCC(F)(F)F)N1CCN(Cc2ccncc2)[C@@H]2CS(=O)(=O)C[C@@H]21 was A: -0.7417%; B: -11.9%; C: -19.69%; D: -2.273%. With CCn1c(=O)nc(N)c2c(-c3ccc(OC)cc3)csc21 the screen gave A: 1.611%; B: 5.865%; C: -29.26%; D: 7.395%. Result for O=C(c1cscn1)N1CCC2(CN(Cc3ccoc3)C2)C1 was A: 0.7508%; B: -14.58%; C: -14.19%; D: -0.6965%. CCS(=O)(=O)N(C)C(=O)c1cc(C)n(-c2cccc(OC)c2)c1C read A: -0.236%; B: 3.722%; C: -16.67%; D: 6.577%. Result for O=C(Nc1ccccc1OCCc1ccccn1)N1CCOCC(O)C1 (stereo not shown) was A: 1.224%; B: -1.865%; C: -5.162%; D: 2.807%.

With N#Cc1ncn(CC(=O)Cc2c(F)cccc2Cl)n1 the screen gave A: -4.392%; B: -2.34%; C: -8.809%; D: 3.576%. With Cc1oncc1C(=O)N1CCc2ncnc(-c3cnn(C)c3)c2CC1 the screen gave A: -0.09074%; B: -7.792%; C: -10.83%; D: 0.06945%. For Cn1cc(CN(CC2(O)CNCCOC2)C2CCCCC2)cn1 (stereo not shown) the result was A: 3.084%; B: -8.421%; C: -2.466%; D: 0.5835%. Result for CCN(CC)S(=O)(=O)c1ccc(CCC(=O)NCc2cc(C)on2)cc1 was A: -3.381%; B: 6.947%; C: -20.35%; D: 5.08%. COc1cc(C2(C(=O)NC3CCN(CC4CC4)CC3)CC2)ccc1C read A: -4.288%; B: 7.453%; C: -36.48%; D: 2.016%.

With COc1ccc(C(=O)N2CCCC(CNS(C)(=O)=O)C2)cc1F (stereo not shown) the screen gave A: 1.956%; B: 9.973%; C: 5.374%; D: 10.02%. Result for O=C(CO)N1CCN(C(=O)c2coc3ccccc23)CC1 was A: 2.683%; B: 2.32%; C: -38.72%; D: 3.479%. CC(C)c1cc(NC(=O)CN2CCCC2c2noc(C(C)C)n2)on1 (stereo not shown) gave A: -8.284%; B: -31.83%; C: -0.6413%; D: 3.964%. With CCOCC1COCCC12CCN(C(=O)CS(C)(=O)=O)CC2 (stereo not shown) the screen gave A: -1.402%; B: -7.991%; C: 13.17%; D: 3.13%. Cn1ccnc1CCNS(=O)(=O)c1cccc(Br)c1 gave A: -2.422%; B: 4.52%; C: -6.295%; D: 2.956%.

CNc1ncc2c(n1)CN(CCc1ccc(Cl)cc1)C2=O gave A: 0.5092%; B: -20.26%; C: -6.263%; D: 9.865%. Cc1nn(C)c(C)c1OCC(=O)NCC(O)c1ccco1 (stereo not shown) gave A: 0.455%; B: -6.133%; C: -23.65%; D: -3.1%. Result for COc1c(C2CCCN2Cc2cc(C)no2)c(C)nn1C (stereo not shown) was A: -2.43%; B: -2.539%; C: -13.43%; D: 3.936%. With O=C(c1ccccc1F)N1CC[C@@H]2CN(c3ncccn3)CCO[C@@H]2C1 the screen gave A: 3.44%; B: -9.25%; C: 11.97%; D: 0.918%.

For reference, 2 entries once more:

- CC(C)c1cc(NC(=O)CN2CCCC2c2noc(C(C)C)n2)on1 (stereo not shown) : A: -8.284%; B: -31.83%; C: -0.6413%; D: 3.964%
- N#CCCN(CC1CCOC1)S(=O)(=O)c1cccc(Cl)c1 (stereo not shown) : A: -1.262%; B: -5.427%; C: -27.92%; D: 1.58%

The values are deposited in ChEMBL (CHEMBL3988442, “University of Dundee, Small-Polar-MMV Screening Library” (2021)).